Laboratory results: PubChem BioAssay AID493246 (Drosophila RNAi Screening Center, 2011)
The screen tested about 21,000 reagents; below is an unselected part of those with a known target gene and a result. In the full data, 429 (2%) got an active call. 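Values are raw and not normalised between plates; calls rest on per-plate z-scores that were not deposited.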 A number with no mark means an inactive call. Reagents against one gene are numbered here. Not given: the amount of reagent, the time to read-out.

Aim: 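Genes fly cells need to grow and stay alive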 (primary screen)
System: Drosophila Kc and S2R+ cells
Reagents: long dsRNA against Drosophila genes
Read-out: 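Raw, unnormalised count of remaining cells in each well; per-plate z-scores of cell number underlie the calls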
Direction: Kc cell number and S2R+ cell number: higher = more cells remaining
Rule for the call: 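Active when the per-plate z-score of cell number is 3 or more in the direction of fewer cells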

no.	gene knocked down	reagent no.	Kc cell number, rep 1	Kc cell number, rep 2	S2R+ cell number, rep 1	S2R+ cell number, rep 2
1	mbo (members only)	1	1.47e6	1.54e6	1.26e6	1.36e6
2	Obp83cd (Odorant-binding protein 83cd)	1	1.46e6	1.63e6	1.34e6	1.34e6
3	CG3565	1	1.46e6	1.59e6	1.15e6	1.29e6
4	RacGAP84C (Rac GTPase activating protein at 84C)	1	1.61e6	1.68e6	1.37e6	1.48e6
5	DNAlig4 (DNA ligase 4)	1	1.59e6	1.51e6	1.11e6	1.30e6
6	fru (fruitless)	1	1.27e6	1.24e6	6.87e5	7.61e5
7	fru (fruitless)	2	9.93e5 (active)	9.54e5	6.60e5	7.34e5
8	fru (fruitless)	3	1.38e6	1.69e6	1.03e6	1.07e6
9	CG10862	1	1.36e6	1.27e6	9.79e5	1.24e6
10	side-VIII (sidestep VIII)	1	6.45e5		8.06e5	
11	side-VIII (sidestep VIII)	2	3.69e5		6.02e5	
12	side-VIII (sidestep VIII)	3	1.64e6	1.67e6	1.16e6	1.24e6
13	AIMP1 (aaRS-interacting multifunctional protein 1)	1	1.59e6	1.67e6	1.20e6	1.27e6
14	BoYb	1	1.53e6	1.56e6	1.27e6	1.34e6
15	CG17572	1	1.48e6	1.64e6	1.33e6	2.94e5
16	CG32137	1	1.67e6	1.72e6	1.35e6	1.47e6
17	CG32137	2	2.00e6	1.81e6	1.10e6	1.18e6
18	Acf (ATP-dependent chromatin assembly factor large subunit)	1	5.10e5		6.97e5	
19	CG6429	1	1.65e6	1.68e6	1.30e6	1.53e6
20	CG17646	1	1.36e6	1.36e6	1.12e6	1.25e6
21	Bili (Band4.1 inhibitor LRP interactor)	1	1.55e6	1.58e6	1.20e6	1.22e6
22	CG31219	1	1.20e6	1.15e6	1.06e6	1.18e6
23	CG33465	1	1.58e6	1.62e6	1.08e6	1.20e6
24	CG2765	1	1.26e6	1.28e6	1.12e6	1.01e6

An excerpt from above, limited to “S2R+ cell number, rep 1”:
CG17646: 1.12e6
Bili (Band4.1 inhibitor LRP interactor): 1.20e6
CG31219: 1.06e6
CG33465: 1.08e6
